# Test results from the supplement of paper PMC10849652.
# The chains behind the UniProt entries cited, without tags or fusion partners. Where a name states a change or a piece, a line headed by the entry shows the natural chain unless it says otherwise.
# UniProt O60268: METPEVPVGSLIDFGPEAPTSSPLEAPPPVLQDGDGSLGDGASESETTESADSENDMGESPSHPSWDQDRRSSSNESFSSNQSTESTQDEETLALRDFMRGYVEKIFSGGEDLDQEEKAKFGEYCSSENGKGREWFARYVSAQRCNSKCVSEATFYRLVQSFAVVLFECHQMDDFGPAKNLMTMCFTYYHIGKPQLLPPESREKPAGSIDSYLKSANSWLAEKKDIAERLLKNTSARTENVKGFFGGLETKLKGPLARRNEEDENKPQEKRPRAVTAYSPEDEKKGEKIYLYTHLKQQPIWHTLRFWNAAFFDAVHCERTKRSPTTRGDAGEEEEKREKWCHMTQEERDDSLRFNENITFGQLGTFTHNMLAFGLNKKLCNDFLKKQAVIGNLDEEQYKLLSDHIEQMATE
# UniProt A5PL33: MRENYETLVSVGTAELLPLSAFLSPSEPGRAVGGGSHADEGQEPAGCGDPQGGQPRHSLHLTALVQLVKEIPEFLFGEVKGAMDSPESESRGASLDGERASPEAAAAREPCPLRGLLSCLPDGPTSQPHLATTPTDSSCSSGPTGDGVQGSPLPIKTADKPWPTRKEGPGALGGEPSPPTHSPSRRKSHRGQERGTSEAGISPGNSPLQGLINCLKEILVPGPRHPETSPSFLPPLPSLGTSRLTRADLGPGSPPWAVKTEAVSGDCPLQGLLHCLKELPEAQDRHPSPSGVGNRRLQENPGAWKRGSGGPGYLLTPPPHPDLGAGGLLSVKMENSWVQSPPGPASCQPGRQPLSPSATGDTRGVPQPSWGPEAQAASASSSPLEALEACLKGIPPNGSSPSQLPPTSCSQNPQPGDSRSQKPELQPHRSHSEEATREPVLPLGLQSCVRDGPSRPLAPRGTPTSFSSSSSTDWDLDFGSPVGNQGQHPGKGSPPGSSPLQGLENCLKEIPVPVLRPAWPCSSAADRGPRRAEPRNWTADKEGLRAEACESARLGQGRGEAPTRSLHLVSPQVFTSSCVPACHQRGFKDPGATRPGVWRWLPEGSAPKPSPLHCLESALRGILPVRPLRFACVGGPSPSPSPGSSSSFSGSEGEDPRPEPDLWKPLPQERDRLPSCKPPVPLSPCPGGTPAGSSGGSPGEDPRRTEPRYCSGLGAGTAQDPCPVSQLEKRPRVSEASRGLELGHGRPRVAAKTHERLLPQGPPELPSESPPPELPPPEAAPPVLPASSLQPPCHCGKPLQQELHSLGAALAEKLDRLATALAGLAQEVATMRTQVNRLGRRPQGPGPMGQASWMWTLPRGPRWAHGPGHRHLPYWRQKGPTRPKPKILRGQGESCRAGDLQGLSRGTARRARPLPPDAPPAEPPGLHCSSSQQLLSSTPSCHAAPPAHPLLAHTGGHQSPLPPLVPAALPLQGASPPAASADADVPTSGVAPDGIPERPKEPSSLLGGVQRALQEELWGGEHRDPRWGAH
# UniProt Q03164, whole entry, looked up: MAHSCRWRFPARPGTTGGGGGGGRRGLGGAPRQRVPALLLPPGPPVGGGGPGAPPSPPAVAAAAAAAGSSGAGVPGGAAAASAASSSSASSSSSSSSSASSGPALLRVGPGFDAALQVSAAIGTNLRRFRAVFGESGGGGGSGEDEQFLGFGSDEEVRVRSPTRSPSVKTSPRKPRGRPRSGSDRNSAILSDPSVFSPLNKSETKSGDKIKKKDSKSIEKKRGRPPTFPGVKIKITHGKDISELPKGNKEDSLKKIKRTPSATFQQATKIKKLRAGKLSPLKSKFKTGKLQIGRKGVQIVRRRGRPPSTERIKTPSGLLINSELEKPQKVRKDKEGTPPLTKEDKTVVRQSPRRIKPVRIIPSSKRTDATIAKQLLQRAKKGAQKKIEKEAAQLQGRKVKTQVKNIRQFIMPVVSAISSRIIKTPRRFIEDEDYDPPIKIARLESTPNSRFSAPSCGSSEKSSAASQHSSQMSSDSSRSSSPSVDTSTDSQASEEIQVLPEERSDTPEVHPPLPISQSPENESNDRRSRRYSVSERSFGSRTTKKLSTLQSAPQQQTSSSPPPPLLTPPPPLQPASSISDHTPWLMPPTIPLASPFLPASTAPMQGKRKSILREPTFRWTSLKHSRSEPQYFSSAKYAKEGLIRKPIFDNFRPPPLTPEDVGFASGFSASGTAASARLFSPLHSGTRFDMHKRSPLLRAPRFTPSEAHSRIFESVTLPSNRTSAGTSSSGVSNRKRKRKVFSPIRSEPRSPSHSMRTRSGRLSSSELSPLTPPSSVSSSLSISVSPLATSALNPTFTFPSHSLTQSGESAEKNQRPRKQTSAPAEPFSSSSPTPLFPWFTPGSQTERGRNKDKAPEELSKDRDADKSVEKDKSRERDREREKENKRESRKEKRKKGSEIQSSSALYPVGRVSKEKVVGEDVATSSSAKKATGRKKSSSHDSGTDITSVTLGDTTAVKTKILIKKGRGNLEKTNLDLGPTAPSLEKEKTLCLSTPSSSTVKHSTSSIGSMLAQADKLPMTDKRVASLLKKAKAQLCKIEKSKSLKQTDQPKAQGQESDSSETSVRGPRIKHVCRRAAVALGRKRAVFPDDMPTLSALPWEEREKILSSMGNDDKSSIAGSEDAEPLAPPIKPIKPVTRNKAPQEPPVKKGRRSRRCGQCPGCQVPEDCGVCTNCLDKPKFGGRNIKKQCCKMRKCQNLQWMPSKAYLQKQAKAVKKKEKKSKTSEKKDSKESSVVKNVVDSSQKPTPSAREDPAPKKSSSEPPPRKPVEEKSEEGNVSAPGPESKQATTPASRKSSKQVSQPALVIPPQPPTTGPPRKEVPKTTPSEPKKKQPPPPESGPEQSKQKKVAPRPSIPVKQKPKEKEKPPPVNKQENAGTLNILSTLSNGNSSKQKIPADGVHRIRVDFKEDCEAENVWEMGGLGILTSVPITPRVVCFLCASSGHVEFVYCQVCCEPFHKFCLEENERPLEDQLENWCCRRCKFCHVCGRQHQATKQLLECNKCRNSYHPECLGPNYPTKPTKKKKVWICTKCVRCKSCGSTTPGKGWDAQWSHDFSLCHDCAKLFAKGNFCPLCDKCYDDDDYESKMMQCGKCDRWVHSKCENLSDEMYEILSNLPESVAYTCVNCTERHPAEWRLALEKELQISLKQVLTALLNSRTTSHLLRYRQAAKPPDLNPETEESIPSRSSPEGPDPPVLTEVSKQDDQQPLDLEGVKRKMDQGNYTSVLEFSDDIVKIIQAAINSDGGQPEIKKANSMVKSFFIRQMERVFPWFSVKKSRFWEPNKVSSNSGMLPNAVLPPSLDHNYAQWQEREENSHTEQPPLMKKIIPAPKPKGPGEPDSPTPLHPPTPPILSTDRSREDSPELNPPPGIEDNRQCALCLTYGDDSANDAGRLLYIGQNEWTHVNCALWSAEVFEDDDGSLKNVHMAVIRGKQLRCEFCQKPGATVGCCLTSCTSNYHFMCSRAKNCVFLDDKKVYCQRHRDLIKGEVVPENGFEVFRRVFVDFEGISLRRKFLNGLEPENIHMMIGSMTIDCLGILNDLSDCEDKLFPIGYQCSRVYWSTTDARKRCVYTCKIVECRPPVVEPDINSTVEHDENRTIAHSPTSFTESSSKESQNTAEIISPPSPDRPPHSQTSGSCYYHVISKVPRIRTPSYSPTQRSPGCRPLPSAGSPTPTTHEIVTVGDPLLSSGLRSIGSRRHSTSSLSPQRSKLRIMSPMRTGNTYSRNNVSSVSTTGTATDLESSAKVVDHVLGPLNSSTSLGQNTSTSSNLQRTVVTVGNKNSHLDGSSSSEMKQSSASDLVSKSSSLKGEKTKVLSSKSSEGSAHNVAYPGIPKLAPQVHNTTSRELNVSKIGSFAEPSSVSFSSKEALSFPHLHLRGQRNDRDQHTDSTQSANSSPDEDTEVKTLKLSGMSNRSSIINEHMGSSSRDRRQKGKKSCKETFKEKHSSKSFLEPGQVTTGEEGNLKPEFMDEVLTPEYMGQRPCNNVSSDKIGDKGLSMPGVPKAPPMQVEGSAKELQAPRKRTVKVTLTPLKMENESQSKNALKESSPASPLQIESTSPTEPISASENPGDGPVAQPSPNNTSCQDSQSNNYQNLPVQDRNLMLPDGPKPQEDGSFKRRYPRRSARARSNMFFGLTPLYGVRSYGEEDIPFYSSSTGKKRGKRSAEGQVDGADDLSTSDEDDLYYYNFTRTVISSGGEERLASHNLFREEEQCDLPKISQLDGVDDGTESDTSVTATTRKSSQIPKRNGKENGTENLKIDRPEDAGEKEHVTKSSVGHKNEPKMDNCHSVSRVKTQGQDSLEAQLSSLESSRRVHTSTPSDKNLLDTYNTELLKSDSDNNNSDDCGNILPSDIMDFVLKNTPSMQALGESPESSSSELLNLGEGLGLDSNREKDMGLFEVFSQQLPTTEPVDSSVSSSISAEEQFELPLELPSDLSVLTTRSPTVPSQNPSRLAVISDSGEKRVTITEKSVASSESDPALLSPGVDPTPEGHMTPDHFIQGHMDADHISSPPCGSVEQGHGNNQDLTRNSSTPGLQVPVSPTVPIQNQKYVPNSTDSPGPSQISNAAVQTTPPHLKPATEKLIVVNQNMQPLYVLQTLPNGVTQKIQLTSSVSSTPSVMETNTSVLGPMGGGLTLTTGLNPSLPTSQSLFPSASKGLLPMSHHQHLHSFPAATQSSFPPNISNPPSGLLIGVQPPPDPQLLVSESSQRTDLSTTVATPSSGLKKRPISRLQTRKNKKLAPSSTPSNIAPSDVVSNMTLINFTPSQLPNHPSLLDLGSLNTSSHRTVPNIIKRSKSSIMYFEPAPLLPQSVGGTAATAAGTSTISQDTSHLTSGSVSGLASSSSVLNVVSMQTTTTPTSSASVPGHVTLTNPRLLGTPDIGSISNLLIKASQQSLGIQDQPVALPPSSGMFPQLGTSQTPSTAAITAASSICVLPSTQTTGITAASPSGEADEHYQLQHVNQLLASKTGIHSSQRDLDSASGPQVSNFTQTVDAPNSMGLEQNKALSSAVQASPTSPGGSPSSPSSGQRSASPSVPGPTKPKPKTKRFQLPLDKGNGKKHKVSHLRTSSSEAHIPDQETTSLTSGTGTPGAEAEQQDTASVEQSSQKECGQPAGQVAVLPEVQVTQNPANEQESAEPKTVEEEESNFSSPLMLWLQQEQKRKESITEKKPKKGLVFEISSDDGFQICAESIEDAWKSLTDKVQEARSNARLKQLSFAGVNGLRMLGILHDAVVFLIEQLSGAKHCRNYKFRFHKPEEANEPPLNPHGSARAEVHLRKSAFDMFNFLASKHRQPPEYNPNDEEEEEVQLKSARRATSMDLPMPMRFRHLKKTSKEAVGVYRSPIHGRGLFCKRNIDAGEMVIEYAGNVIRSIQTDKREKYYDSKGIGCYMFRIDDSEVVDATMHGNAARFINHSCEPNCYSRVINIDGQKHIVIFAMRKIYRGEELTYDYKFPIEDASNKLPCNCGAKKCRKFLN
# UniProt Q07866: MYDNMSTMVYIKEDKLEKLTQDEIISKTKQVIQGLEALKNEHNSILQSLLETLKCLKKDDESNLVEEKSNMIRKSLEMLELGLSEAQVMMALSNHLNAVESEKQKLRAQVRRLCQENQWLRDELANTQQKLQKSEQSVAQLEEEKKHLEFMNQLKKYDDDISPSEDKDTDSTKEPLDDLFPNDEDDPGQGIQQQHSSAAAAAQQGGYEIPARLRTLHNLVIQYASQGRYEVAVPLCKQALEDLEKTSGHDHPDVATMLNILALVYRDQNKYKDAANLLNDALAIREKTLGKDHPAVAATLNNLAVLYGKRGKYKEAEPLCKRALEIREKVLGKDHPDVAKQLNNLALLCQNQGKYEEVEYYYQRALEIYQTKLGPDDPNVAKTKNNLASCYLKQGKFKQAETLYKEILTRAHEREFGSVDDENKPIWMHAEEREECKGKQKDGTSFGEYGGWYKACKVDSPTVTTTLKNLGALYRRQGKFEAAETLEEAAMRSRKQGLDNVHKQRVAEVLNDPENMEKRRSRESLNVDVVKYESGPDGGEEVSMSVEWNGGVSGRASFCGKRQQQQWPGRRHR
# UniProt O60662: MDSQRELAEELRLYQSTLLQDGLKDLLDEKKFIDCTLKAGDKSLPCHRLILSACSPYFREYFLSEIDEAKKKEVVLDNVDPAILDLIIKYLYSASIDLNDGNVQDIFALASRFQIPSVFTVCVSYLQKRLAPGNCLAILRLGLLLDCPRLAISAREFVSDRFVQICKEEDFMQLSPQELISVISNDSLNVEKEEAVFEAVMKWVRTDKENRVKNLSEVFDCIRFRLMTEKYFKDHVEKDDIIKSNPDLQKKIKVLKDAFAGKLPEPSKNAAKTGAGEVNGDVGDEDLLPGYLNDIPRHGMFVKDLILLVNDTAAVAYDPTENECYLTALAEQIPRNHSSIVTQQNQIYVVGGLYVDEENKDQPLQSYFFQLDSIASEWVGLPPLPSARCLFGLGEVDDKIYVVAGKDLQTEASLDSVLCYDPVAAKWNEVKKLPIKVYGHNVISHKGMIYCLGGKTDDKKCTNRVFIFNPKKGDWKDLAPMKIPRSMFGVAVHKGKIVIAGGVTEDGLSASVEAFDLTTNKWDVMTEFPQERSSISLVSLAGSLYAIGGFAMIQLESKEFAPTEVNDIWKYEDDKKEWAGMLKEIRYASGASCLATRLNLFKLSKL
# The other results are listed elsewhere or left out.
# Experiments:
# Assay in all cases: log2 fold change, soluble protein after heating vs DMSO (PISA); higher = thermal stabilisation; K562 lysate, 10 uM; active = over 0.2 and 3.5 SD of the protein, either way, in both replicates (recomputed)
# [1] = compound: C1=CC=C(C=C1)[C@H](COC2=CC3=C(C=C2)NC(=O)N3)NC(=O)C4=CC=CN(C4=O)CC5=CC(=C(C=C5)F)F
# How it was run: (§1)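 Values give the log-two fold change in thermal stability against solvent controls, from duplicates. Crude K562 extract at 1 mg/mL protein, made by dounce homogenisation in PBS pH 7.4 with 1 mM MgCl2, was treated with 10 μM compound for 30 min. After 3 min heating across 48°C-58°C, aliquots were pooled, adjusted to 0.5% NP-40 at 4°C and centrifuged at 21,000xg for 90 min. The supernatant was measured by TMTpro 16plex LC-MS/MS with channel sums equalised.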
# [2] = compound: CC1=C(SC2=C1C(=N[C@H](C3=NN=C(N32)C)CC(=O)N)C4=CC=C(C=C4)Cl)C
# How it was run: as §1
# [3] = compound: CC1=C2C(=CC=C1)N=C(N(C2=O)C3=CC=CC=C3C)CN4C=NC5=C(N=CN=C54)N
# How it was run: as §1
# [4] = compound: Cc1sc2c(c1C)C(c1ccc(Cl)cc1)=N[C@@H](CC(=O)OC(C)(C)C)c1nnc(C)n1-2
# How it was run: as §1
# [5] = compound: c1ccc([C@@H]2C[C@H]2NC2CCNCC2)cc1
# How it was run: as §1
Target,log2 fold change [1],log2 fold change [2],log2 fold change [3],log2 fold change [4],log2 fold change [5]
KIAA0513 (UniProt O60268),inactive: 0.089,inactive: 0.003,inactive: -0.098,inactive: 0.027,inactive: -0.018
KLHL12 isoform 2 (UniProt Q53G59),inactive: 0.152,inactive: -0.049,inactive: -0.013,inactive: 0.161,
KIF4B (UniProt Q2VIQ3),inactive: 0.035,inactive: 0.009,inactive: -0.02,inactive: 0.029,inactive: 0.013
LARP4 isoform 4 (UniProt Q71RC2),inactive: 0,inactive: 0.006,inactive: -0.025,inactive: 0.028,inactive: 0
KIF5A (UniProt Q12840),inactive: -0.001,inactive: 0.01,inactive: 0.014,inactive: -0.041,inactive: 0.028
L3HYPDH (UniProt Q96EM0),inactive: -0.022,inactive: 0.042,inactive: 0.003,inactive: -0.014,inactive: 0.01
KIAA1191 (UniProt Q96A73),inactive: 0.026,inactive: -0.03,inactive: -0.05,inactive: 0.017,inactive: -0.044
LAMTOR1 (UniProt Q6IAA8),inactive: -0.048,inactive: -0.048,inactive: -0.013,inactive: -0.023,inactive: 0.177
KLF16 (UniProt Q9BXK1),inactive: -0.011,inactive: -0.072,inactive: 0.021,inactive: 0.041,inactive: -0.208
KRIT1 (UniProt O00522),inactive: -0.026,inactive: -0.041,inactive: 0.099,inactive: -0.082,
KHK isoform 2 (UniProt P50053),inactive: -0.01,inactive: 0.034,inactive: -0.003,inactive: -0.137,inactive: 0.142
KPNA2 (UniProt P52292),inactive: -0.016,inactive: 0.027,inactive: 0.035,inactive: 0.003,inactive: 0.06
KIAA1586 (UniProt Q9HCI6),inactive: 0.02,inactive: 0.08,inactive: 0.076,inactive: -0.093,
KIAA0930 isoform 2 (UniProt Q6ICG6),inactive: 0.3,inactive: -0.034,inactive: -0.051,inactive: 0.07,inactive: 0.031
KMT2C isoform 3 (UniProt Q8NEZ4),inactive: 0.071,inactive: 0.13,inactive: -0.024,inactive: -0.031,inactive: 0.018
KIAA1549 (UniProt Q9HCM3),inactive: -0.079,inactive: 0.048,,,
KIAA0319L (UniProt Q8IZA0),inactive: 0.057,inactive: 0.005,inactive: -0.017,inactive: -0.017,inactive: 0.001
KTN1 (UniProt G3V5Q0),inactive: -0.119,inactive: 0.092,inactive: 0.111,,
KIF15 (UniProt Q9NS87),inactive: -0.008,inactive: -0.003,inactive: 0.021,inactive: -0.02,inactive: 0.013
KLF1 (UniProt Q13351),inactive: 0.009,inactive: 0.059,,,
L1RE1 (UniProt Q9UN81),inactive: 0.03,inactive: -0.05,inactive: -0.053,inactive: -0.005,inactive: -0.024
KDM8 isoform 3 (UniProt Q8N371),inactive: -0.022,inactive: 0.052,inactive: -0.03,inactive: 0.005,inactive: -0.048
KIF13A isoform 4 (UniProt Q9H1H9),inactive: 0.036,inactive: -0.017,inactive: 0.024,inactive: 0.06,inactive: 0
KHNYN (UniProt O15037),inactive: -0.037,inactive: -0.055,inactive: -0.008,inactive: -0.008,
KRBA1 (UniProt A5PL33),inactive: 0.034,inactive: -0.005,inactive: -0.189,inactive: 0.276,inactive: -0.085
KIF1B isoform 2 (UniProt O60333),inactive: 0.007,inactive: -0.04,inactive: 0.05,inactive: -0.017,inactive: 0.008
KIF21B (UniProt O75037),inactive: -0.098,inactive: 0.143,inactive: -0.062,inactive: -0.075,inactive: 0.081
KIF2C (UniProt Q99661),inactive: -0.022,inactive: -0.023,inactive: -0.009,inactive: 0.052,inactive: 0.032

Target,log2 fold change [1],log2 fold change [2],log2 fold change [3],log2 fold change [4],log2 fold change [5]
LAMTOR5 (UniProt O43504),inactive: 0.002,inactive: -0.107,inactive: 0.008,inactive: -0.032,inactive: 0.107
KMT2A isoform 3 (UniProt Q03164),inactive: 0.043,inactive: 0.09,inactive: -0.009,inactive: -0.025,inactive: 0.016
KHDC4 (UniProt Q7Z7F0),inactive: -0.026,inactive: 0.011,inactive: -0.027,inactive: 0.007,inactive: -0.042
KIF3A (UniProt Q9Y496),inactive: -0.063,inactive: 0.084,inactive: 0.018,inactive: 0.132,inactive: -0.034
LAMP2 (UniProt P13473),inactive: -0.021,inactive: 0.063,inactive: -0.034,inactive: 0.017,inactive: -0.035
KPNA4 (UniProt O00629),inactive: 0.06,inactive: -0.068,inactive: 0.044,inactive: 0.011,inactive: -0.169
KLC1 isoform 10 (UniProt Q07866),inactive: -0.094,inactive: -0.063,,,
KYNU (UniProt Q16719),inactive: 0.039,inactive: -0.009,inactive: 0.026,inactive: -0.073,inactive: -0.029
KIAA1143 (UniProt Q96AT1),inactive: 0.013,inactive: -0.012,inactive: -0.032,inactive: -0.074,inactive: -0.043
KRT13 (UniProt K7EMD9),inactive: -0.166,inactive: 0.093,,,
KIFC1 (UniProt Q9BW19),inactive: 0.046,inactive: -0.008,inactive: 0.122,inactive: 0.021,inactive: 0.029
KIF11 (UniProt P52732),inactive: 0.008,inactive: -0.001,inactive: 0.006,inactive: -0.002,inactive: 0
KDM4A (UniProt O75164),inactive: 0.043,inactive: -0.05,inactive: 0.093,inactive: -0.027,inactive: -0.074
KIFC3 isoform 6 (UniProt Q9BVG8),inactive: 0.023,inactive: 0.016,inactive: -0.178,inactive: -0.21,active: -1.16
KLHDC4 (UniProt Q8TBB5),inactive: 0.06,inactive: 0,inactive: 0.031,inactive: 0.012,inactive: 0.069
KNTC1 (UniProt P50748),inactive: -0.01,inactive: 0.024,inactive: 0.062,inactive: -0.002,inactive: -0.003
KTI12 (UniProt Q96EK9),inactive: -0.023,inactive: -0.015,inactive: 0.006,inactive: -0.133,inactive: -0.007
KNL1 (UniProt Q8NG31),inactive: 0.009,inactive: 0.003,inactive: -0.004,inactive: -0.03,inactive: -0.001
LACTB (UniProt P83111),inactive: -0.127,inactive: 0.033,inactive: -0.003,inactive: -0.011,inactive: 0.03
KIAA0100 (UniProt Q14667),inactive: -0.054,inactive: 0.074,inactive: 0.179,inactive: -0.172,inactive: -0.063
KLHL41 (UniProt O60662),inactive: -0.039,inactive: 0.062,inactive: 0.17,inactive: -0.205,inactive: -0.216
KIF13B (UniProt Q9NQT8),inactive: -0.017,inactive: 0.023,inactive: 0.044,inactive: 0.082,inactive: -0.039
KLHL36 (UniProt Q8N4N3),inactive: -0.072,inactive: -0.086,inactive: -0.018,inactive: -0.011,inactive: 0.074
LANCL2 (UniProt Q9NS86),inactive: 0.024,inactive: -0.012,inactive: 0.016,inactive: 0.002,inactive: -0.064
KIZ (UniProt Q2M2Z5),inactive: 0.025,inactive: 0.015,inactive: -0.056,inactive: -0.236,inactive: 0.019
LAMTOR3 (UniProt Q9UHA4),inactive: -0.028,inactive: -0.002,inactive: 0.001,inactive: -0.036,inactive: -0.124
KYAT3 (UniProt Q6YP21),inactive: 0.015,inactive: -0.015,inactive: 0.005,inactive: -0.026,inactive: -0.074

# Record cards, as listed above:
# KLHL41 (UniProt O60662) reads log2 fold change [1]: inactive: -0.039; log2 fold change [2]: inactive: 0.062; log2 fold change [3]: inactive: 0.17; log2 fold change [4]: inactive: -0.205; log2 fold change [5]: inactive: -0.216
# KDM4A (UniProt O75164) reads log2 fold change [1]: inactive: 0.043; log2 fold change [2]: inactive: -0.05; log2 fold change [3]: inactive: 0.093; log2 fold change [4]: inactive: -0.027; log2 fold change [5]: inactive: -0.074
# KLHL36 (UniProt Q8N4N3) reads log2 fold change [1]: inactive: -0.072; log2 fold change [2]: inactive: -0.086; log2 fold change [3]: inactive: -0.018; log2 fold change [4]: inactive: -0.011; log2 fold change [5]: inactive: 0.074
# LAMTOR5 (UniProt O43504) reads log2 fold change [1]: inactive: 0.002; log2 fold change [2]: inactive: -0.107; log2 fold change [3]: inactive: 0.008; log2 fold change [4]: inactive: -0.032; log2 fold change [5]: inactive: 0.107
